# The supplement of paper PMC8728848
# This is one part of the list.
# Experiments:
# Test in all cases: glycan array binding signal (z-score within array); higher = stronger binding
# Conditions in all cases: glycan notation: IUPAC condensed, linker removed
# [1] = molecular target: Fuc(a1-2)[Gal(a1-3)]Gal(b1-4)GlcNAc(b1-2)Man(a1-3)[Fuc(a1-2)[Gal(a1-3)]Gal(b1-4)GlcNAc(b1-2)Man(a1-6)]Man(b1-4)GlcNAc(b1-4)[Fuc(a1-6)]GlcNAc
# Procedure, shortened: (§1)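 Glycan array data were curated from 3228 arrays in the Consortium for Functional Glycomics database and kept only where the protein sequence was available. Glycan names were converted to IUPAC-condensed notation, and columns mapping to the same glycan were averaged. The binding signal is a within-array Z-score, averaged across arrays of the same protein sequence at different concentrations or buffers and across linkers. Negative Z-scores can be read as non-binding.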
# [2] = molecular target: Fuc(a1-2)[Gal(a1-3)]Gal(b1-4)GlcNAc(b1-3)GalNAc
# Procedure, shortened: as §1
# [3] = molecular target: Fuc(a1-2)[Gal(a1-3)]Gal(b1-4)GlcNAc(b1-6)GalNAc
# Procedure, shortened: as §1
# [4] = molecular target: Fuc(a1-2)[Gal(a1-3)]Gal(b1-4)[Fuc(a1-3)]Glc
# Procedure, shortened: as §1
# [5] = molecular target: Fuc(a1-2)[Gal(a1-3)]Gal(b1-4)[Fuc(a1-3)]GlcNAc
# Procedure, shortened: as §1
# [6] = molecular target: Fuc(a1-2)[Gal(a1-3)]Gal(b1-4)[Fuc(a1-3)]GlcNAc(b1-3)GalNAc
# Procedure, shortened: as §1
# [7] = molecular target: Fuc(a1-2)[Gal(a1-4)]Gal(b1-4)GlcNAc
# Procedure, shortened: as §1
# [8] = molecular target: Fuc(a1-2)[GalNAc(a1-3)]Gal
# Procedure, shortened: as §1
# [9] = molecular target: Fuc(a1-2)[GalNAc(a1-3)]Gal(b1-3)GalNAc(a1-3)[Fuc(a1-2)]Gal(b1-4)GlcNAc
# Procedure, shortened: as §1
# [10] = molecular target: Fuc(a1-2)[GalNAc(a1-3)]Gal(b1-3)GalNAc(b1-3)Gal(a1-4)Gal(b1-4)Glc
# Procedure, shortened: as §1
# [11] = molecular target: Fuc(a1-2)[GalNAc(a1-3)]Gal(b1-3)GlcNAc
# Procedure, shortened: as §1
# [12] = molecular target: Fuc(a1-2)[GalNAc(a1-3)]Gal(b1-3)GlcNAc(b1-2)Man(a1-3)[Fuc(a1-2)[GalNAc(a1-3)]Gal(b1-3)GlcNAc(b1-2)Man(a1-6)]Man(b1-4)GlcNAc(b1-4)GlcNAc
# Procedure, shortened: as §1
# [13] = molecular target: Fuc(a1-2)[GalNAc(a1-3)]Gal(b1-3)GlcNAc(b1-2)Man(a1-3)[Fuc(a1-2)[GalNAc(a1-3)]Gal(b1-3)GlcNAc(b1-2)Man(a1-6)]Man(b1-4)GlcNAc(b1-4)[Fuc(a1-6)]GlcNAc
# Procedure, shortened: as §1
# [14] = molecular target: Fuc(a1-2)[GalNAc(a1-3)]Gal(b1-3)GlcNAc(b1-3)GalNAc
# Procedure, shortened: as §1
# [15] = molecular target: Fuc(a1-2)[GalNAc(a1-3)]Gal(b1-3)GlcNAc(b1-6)GalNAc
# Procedure, shortened: as §1
# [16] = molecular target: Fuc(a1-2)[GalNAc(a1-3)]Gal(b1-4)Glc
# Procedure, shortened: as §1
# [17] = molecular target: Fuc(a1-2)[GalNAc(a1-3)]Gal(b1-4)GlcNAc
# Procedure, shortened: as §1
# [18] = molecular target: Fuc(a1-2)[GalNAc(a1-3)]Gal(b1-4)GlcNAc(b1-2)Man
# Procedure, shortened: as §1
# [19] = molecular target: Fuc(a1-2)[GalNAc(a1-3)]Gal(b1-4)GlcNAc(b1-2)Man(a1-3)[Fuc(a1-2)[GalNAc(a1-3)]Gal(b1-4)GlcNAc(b1-2)Man(a1-6)]Man(b1-4)GlcNAc(b1-4)GlcNAc
# Procedure, shortened: as §1
# [20] = molecular target: Fuc(a1-2)[GalNAc(a1-3)]Gal(b1-4)GlcNAc(b1-2)Man(a1-3)[Fuc(a1-2)[GalNAc(a1-3)]Gal(b1-4)GlcNAc(b1-2)Man(a1-6)]Man(b1-4)GlcNAc(b1-4)[Fuc(a1-6)]GlcNAc
# Procedure, shortened: as §1
# [21] = molecular target: Fuc(a1-2)[GalNAc(a1-3)]Gal(b1-4)GlcNAc(b1-3)Gal(b1-4)GlcNAc
# Procedure, shortened: as §1
# [22] = molecular target: Fuc(a1-2)[GalNAc(a1-3)]Gal(b1-4)GlcNAc(b1-3)Gal(b1-4)GlcNAc(b1-3)Gal(b1-4)GlcNAc
# Procedure, shortened: as §1
# [23] = molecular target: Fuc(a1-2)[GalNAc(a1-3)]Gal(b1-4)GlcNAc(b1-3)GalNAc
# Procedure, shortened: as §1
# [24] = molecular target: Fuc(a1-2)[GalNAc(a1-3)]Gal(b1-4)GlcNAc(b1-3)[Fuc(a1-2)[GalNAc(a1-3)]Gal(b1-4)GlcNAc(b1-6)]GalNAc
# Procedure, shortened: as §1
# [25] = molecular target: Fuc(a1-2)[GalNAc(a1-3)]Gal(b1-4)GlcNAc(b1-6)GalNAc
# Procedure, shortened: as §1
# [26] = molecular target: Fuc(a1-2)[GalNAc(a1-3)]Gal(b1-4)[Fuc(a1-3)]GlcNAc
# Procedure, shortened: as §1
# [27] = molecular target: Fuc(a1-2)[GalNAc(a1-3)]Gal(b1-4)[Fuc(a1-3)]GlcNAc(b1-3)GalNAc
# Procedure, shortened: as §1
# [28] = molecular target: Fuc(a1-2)[GalNAc(a1-4)]Gal(b1-4)GlcNAc
# Procedure, shortened: as §1
# [29] = molecular target: Fuc(a1-2)[GalNAc(b1-3)]Gal
# Procedure, shortened: as §1
# Fuc(a1-3)GlcNAc = molecular target: Fuc(a1-3)GlcNAc
# Procedure, shortened: as §1
# [30] = molecular target: Fuc(a1-3)[Gal(b1-4)]Glc6S
# Procedure, shortened: as §1
# [31] = molecular target: Fuc(a1-3)[Gal(b1-4)]GlcNAc
# Procedure, shortened: as §1
# [32] = molecular target: Fuc(a1-3)[Gal(b1-4)]GlcNAc(b1-2)Man
# Procedure, shortened: as §1
# [33] = molecular target: Fuc(a1-3)[Gal(b1-4)]GlcNAc(b1-2)Man(a1-3)[Fuc(a1-3)[Gal(b1-4)]GlcNAc(b1-2)Man(a1-6)]Man(b1-4)GlcNAc(b1-4)GlcNAc
# Procedure, shortened: as §1
# [34] = molecular target: Fuc(a1-3)[Gal(b1-4)]GlcNAc(b1-2)Man(a1-3)[Fuc(a1-3)[Gal(b1-4)]GlcNAc(b1-2)Man(a1-6)]Man(b1-4)GlcNAc(b1-4)[Fuc(a1-6)]GlcNAc
# Procedure, shortened: as §1
# [35] = molecular target: Fuc(a1-3)[Gal(b1-4)]GlcNAc(b1-3)Gal(b1-3)[Fuc(a1-4)]GlcNAc
# Procedure, shortened: as §1
# [36] = molecular target: Fuc(a1-3)[Gal(b1-4)]GlcNAc(b1-3)Gal(b1-4)[Fuc(a1-3)]GlcNAc
# Procedure, shortened: as §1
# [37] = molecular target: Fuc(a1-3)[Gal(b1-4)]GlcNAc(b1-3)Gal(b1-4)[Fuc(a1-3)]GlcNAc(b1-3)Gal(b1-4)[Fuc(a1-3)]GlcNAc
# Procedure, shortened: as §1
# [38] = molecular target: Fuc(a1-3)[Gal(b1-4)]GlcNAc(b1-3)GalNAc
# Procedure, shortened: as §1
# [39] = molecular target: Fuc(a1-3)[Gal(b1-4)]GlcNAc(b1-6)GalNAc
# Procedure, shortened: as §1
# [40] = molecular target: Fuc(a1-3)[Gal(b1-4)]GlcNAc(b1-6)[Gal(b1-3)GlcNAc(b1-3)]Gal(b1-4)Glc
# Procedure, shortened: as §1
# [41] = molecular target: Fuc(a1-3)[Gal(b1-4)]GlcNAc6S
# Procedure, shortened: as §1
# [42] = molecular target: Fuc(a1-3)[Gal3S(b1-4)]Glc
# Procedure, shortened: as §1
# [43] = molecular target: Fuc(a1-3)[Gal3S(b1-4)]GlcNAc
# Procedure, shortened: as §1
# [44] = molecular target: Fuc(a1-3)[Gal3S(b1-4)]GlcNAc6S
# Procedure, shortened: as §1
binder,measurement,setting,value
HFR-3 (Triticum aestivum) (protein) MKGLLLCALALAFAAVTTHAQLQSCPTRCGKQADGMECPNNLCCSKDGYCGLGVDYCSAGAGCQSGACYDNKICGAQANGTLCRNNHCCSSGGRCGYGREYCSNGCQGGPCWADLKCGHLDNGKLCPNNLCCSQYGYCGLGPEFCGTGCQNGACSTDKPCGNKANGAPCTNNYCCSQYGSCGLGKDYCGTGCQNGACN,glycan array binding signal (z-score),[1],0.362
same,glycan array binding signal (z-score),[2],-0.757
same,glycan array binding signal (z-score),[3],-1.13
same,glycan array binding signal (z-score),[4],-0.547
same,glycan array binding signal (z-score),[5],-0.831
same,glycan array binding signal (z-score),[6],0.903
same,glycan array binding signal (z-score),[7],-1.66
same,glycan array binding signal (z-score),[8],-0.243
same,glycan array binding signal (z-score),[9],-0.516
same,glycan array binding signal (z-score),[10],-1.32
same,glycan array binding signal (z-score),[11],-0.435
same,glycan array binding signal (z-score),[12],-0.138
same,glycan array binding signal (z-score),[13],-1.12
same,glycan array binding signal (z-score),[14],-0.043
same,glycan array binding signal (z-score),[15],0.01
same,glycan array binding signal (z-score),[16],-0.076
same,glycan array binding signal (z-score),[17],0.093
same,glycan array binding signal (z-score),[18],-0.95
same,glycan array binding signal (z-score),[19],-0.537
same,glycan array binding signal (z-score),[20],-0.517
same,glycan array binding signal (z-score),[21],-0.377
same,glycan array binding signal (z-score),[22],-0.16
same,glycan array binding signal (z-score),[23],-1.3
same,glycan array binding signal (z-score),[24],-0.196
same,glycan array binding signal (z-score),[25],-0.396
same,glycan array binding signal (z-score),[26],-0.585
same,glycan array binding signal (z-score),[27],-0.102
same,glycan array binding signal (z-score),[28],-0.421
same,glycan array binding signal (z-score),[29],0.855
same,glycan array binding signal (z-score),Fuc(a1-3)GlcNAc,-0.336
same,glycan array binding signal (z-score),[30],-1.23
same,glycan array binding signal (z-score),[31],0.146
same,glycan array binding signal (z-score),[32],-0.502
same,glycan array binding signal (z-score),[33],-0.674
same,glycan array binding signal (z-score),[34],-0.211
same,glycan array binding signal (z-score),[35],-0.167
same,glycan array binding signal (z-score),[36],0.97
same,glycan array binding signal (z-score),[37],1.26
same,glycan array binding signal (z-score),[38],-1.2
same,glycan array binding signal (z-score),[39],-1.31
same,glycan array binding signal (z-score),[40],0.487
same,glycan array binding signal (z-score),[41],-1.19
same,glycan array binding signal (z-score),[42],2.04
same,glycan array binding signal (z-score),[43],0.782
same,glycan array binding signal (z-score),[44],1.13

# Nothing new here: entries from further up.
binder,measurement,setting,value
HFR-3 (Triticum aestivum) (protein) MKGLLLCALALAFAAVTTHAQLQSCPTRCGKQADGMECPNNLCCSKDGYCGLGVDYCSAGAGCQSGACYDNKICGAQANGTLCRNNHCCSSGGRCGYGREYCSNGCQGGPCWADLKCGHLDNGKLCPNNLCCSQYGYCGLGPEFCGTGCQNGACSTDKPCGNKANGAPCTNNYCCSQYGSCGLGKDYCGTGCQNGACN,glycan array binding signal (z-score),[18],-0.95
same,glycan array binding signal (z-score),[19],-0.537
